From ChEMBL document CHEMBL3988442, “University of Dundee, Small-Polar-MMV Screening Library” (2021).

Chains of the proteins cited; added tags and fusions are not shown. Residues count along the entry.
UniProt Q4DA54, 1-478: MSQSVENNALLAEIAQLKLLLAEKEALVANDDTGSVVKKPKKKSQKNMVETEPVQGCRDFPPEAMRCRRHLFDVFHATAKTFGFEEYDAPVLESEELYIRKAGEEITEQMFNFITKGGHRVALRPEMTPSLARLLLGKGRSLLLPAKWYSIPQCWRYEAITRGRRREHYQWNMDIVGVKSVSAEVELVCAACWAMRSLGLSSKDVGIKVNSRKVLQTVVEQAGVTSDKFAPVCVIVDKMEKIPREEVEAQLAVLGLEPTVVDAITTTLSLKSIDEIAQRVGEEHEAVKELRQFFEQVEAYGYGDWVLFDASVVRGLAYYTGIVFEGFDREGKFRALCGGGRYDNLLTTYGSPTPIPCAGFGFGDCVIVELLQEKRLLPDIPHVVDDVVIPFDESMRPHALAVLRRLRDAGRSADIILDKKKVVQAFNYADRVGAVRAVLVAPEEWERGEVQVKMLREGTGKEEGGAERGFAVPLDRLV
UniProt A4I591, 1-473: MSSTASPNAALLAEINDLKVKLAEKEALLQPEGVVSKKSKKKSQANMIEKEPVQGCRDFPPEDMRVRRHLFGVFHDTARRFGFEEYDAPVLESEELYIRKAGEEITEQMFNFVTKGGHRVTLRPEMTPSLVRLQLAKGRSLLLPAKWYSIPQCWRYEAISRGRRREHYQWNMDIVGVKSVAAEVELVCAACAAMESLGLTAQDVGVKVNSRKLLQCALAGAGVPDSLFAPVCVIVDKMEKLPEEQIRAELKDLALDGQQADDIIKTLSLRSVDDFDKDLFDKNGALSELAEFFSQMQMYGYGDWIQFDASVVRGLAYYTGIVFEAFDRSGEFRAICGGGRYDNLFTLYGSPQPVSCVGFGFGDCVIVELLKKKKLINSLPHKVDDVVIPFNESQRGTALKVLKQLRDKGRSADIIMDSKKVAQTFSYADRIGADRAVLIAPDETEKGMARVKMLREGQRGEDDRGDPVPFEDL

Values are the deposited “Percent Effect”, in %. The controls that fix the scale are not given in the record; negative values are as filed. This is an unselected part of the compounds tested. A dash means the value is not listed here; it may have been measured.

A: 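Assay of Toxoplasma gondii numbers, read through their beta-galactosidase reporter with a colour substrate. Tested at 10 µM. The record gives no direction; the compounds picked for IC50 retests had high values, so higher reads as fewer parasites. Of about 67,000 compounds tested this way, about 260 (0.38%) reached 50% or more in at least one test.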
B: 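Histidine-tRNA ligase, Trypanosoma cruzi CL Brener (UniProt Q4DA54). Enzyme assay of histidyl-tRNA synthetase; the read-out is not stated. Tested at 30 µM. The record gives no direction; compounds that gave an IC50 in retests scored well above the rest, so higher reads as stronger inhibition. Size under these conditions: about 69,000 compounds, about 31 of them at 50% or above in at least one test.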
C: 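Enzyme assay of histidyl-tRNA synthetase; the read-out is not stated. Target: Histidine-tRNA ligase, Leishmania infantum (UniProt A4I591). Concentration: 30 µM. Higher reads as stronger inhibition (inferred: compounds with an IC50 in retests scored well above the rest). The assay is labelled LdHisRS but filed under L. infantum. About 69,000 compounds were tested under these conditions; 0.6% (about 410) showed 50% or more at least once.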
D: 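Whole-parasite assay of Trypanosoma brucei over 72 hours; the read-out is not stated. Concentration: 30 µM. Higher reads as stronger inhibition (inferred: compounds with an IC50 in retests scored well above the rest). Values scatter widely below zero; nearly all retest evidence comes from the higher of the two concentrations used. Of about 64,000 compounds tested this way, about 940 (1.5%) reached 50% or more in at least one test.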

| # | Compound | A | B | C | D |
|---|---|---|---|---|---|
| 1 | `CC(c1ccccc1Cl)N(C(=O)CSCC(N)=O)C1CC1` (stereo not drawn) | 1.277 | 7.263 | 0 | -18.48 |
| 2 | `Cc1ccc(C(=O)N2CCC3(CC2)CCN(CCN(C)C)C3=O)cn1` | - | 5.263 | 14.63 | - |
| 3 | `O=C(NCc1ccccc1)[C@H]1C[C@@H]2CN(S(=O)(=O)C3CC3)C[C@H]1O2` | - | 6.011 | 11.76 | - |
| 4 | `Cc1nnc(CSc2n[nH]c(-c3ccccn3)n2)o1` | 1.447 | 10.34 | 0.8929 | -8.511 |
| 5 | `Cc1ccc(Nc2nccc(C3CN(CC(N)=O)C3)n2)nc1` | 23 | -0.5405 | 30.56 | 25.25 |
| 6 | `[H][C@@]12CN(c3nccnc3C)C[C@]1(C(=O)O)CN(C1CCOCC1)C2` | 3.106 | - | - | 21.76 |
| 7 | `CS(=O)(=O)NC1CCCN(C(=O)NCc2cccnc2)C1` (stereo not drawn) | 4.43 | 3.396 | 8 | 18.2 |
| 8 | `CS(=O)(=O)Cc1noc(CN2CCc3c(Cl)cccc3C2)n1` | 4.534 | 4.294 | 0 | -60.88 |
| 9 | `Cc1nc(CSCCC(=O)NCC(=O)NC(C)C)cs1` | 3.464 | 7.027 | 13.7 | -9.6 |
| 10 | `Cl.O=C(Cc1ccc(F)cc1)N1CCN(CC(O)C2CC2)CC1` (stereo not drawn) | -0.8758 | - | - | -46.93 |
| 11 | `c1cc(CNCc2cccc3c2OCCO3)cc(Cn2cncn2)c1` | - | 9.901 | 17.39 | 9.01 |
| 12 | `CCNC(=O)CC1CC2(CCN(C(C)=O)CC2)c2cc(F)ccc21` (stereo not drawn) | 8.129 | 2.299 | 12 | -30.67 |
| 13 | `[H][C@@]12CCN(Cc3cccc(C)n3)C[C@@]1([H])O[C@H](C)C2` | -1.941 | - | - | -16.92 |
| 14 | `CCOCC1CN(Cc2ccccn2)Cc2nn(CC3CC3)cc21.O=C(O)C(F)(F)F.O=C(O)C(F)(F)F` (stereo not drawn) | 2.589 | - | - | -15.02 |
| 15 | `CCOc1cccc(NC(=O)c2cnc(C)cn2)n1` | 11.33 | 10 | 18.37 | -14.81 |
| 16 | `CNC(=O)CN(C)C(=O)c1ccc(-c2nc(C)cs2)cc1` | -4.839 | 9.045 | 17.65 | -43.82 |
| 17 | `COc1cc(C)c(CN2CCc3nc4ccsc4c(=O)n3CC2)cc1C` | -8.607 | 3.745 | 6 | -7.746 |
| 18 | `CCCN(CCC)c1ncc(S(=O)(=O)c2cccc(C)c2)c(N)n1` | -0.8387 | 10.31 | 16.48 | 1.054 |
| 19 | `COC(C)C(=O)NS(=O)(=O)c1ccc(F)c(C(F)(F)F)c1` (stereo not drawn) | -6.772 | 6.154 | 4.082 | -11.14 |
| 20 | `O=C(NC[C@H]1C[C@@H]2CN(C(=O)c3ccco3)C[C@@H]2O1)c1ccsc1` | - | 7.735 | 8.108 | - |
| 21 | `CCN1C(=O)CC(c2cnn(C)c2)C12CCN(C(=O)C1CC=CC1)CC2` (stereo not drawn) | -5.499 | 3.448 | 18 | -32.94 |
| 22 | `CS(=O)(=O)N1C[C@@H]2COC[C@@H](CC(=O)N3CCCCO3)[C@@H]2C1` | - | -2.299 | 15.79 | - |
| 23 | `Cn1cccc1C(=O)NCc1cn2c(n1)CN(Cc1cccnc1)CC2` | - | 12.24 | 21 | - |
| 24 | `N#Cc1ccc(C(=O)N2CC[C@H]3[C@H]2CCN3CC2CCOCC2)cc1` | - | 0.9709 | -5.769 | - |
| 25 | `CCOCC(=O)Nc1cc(-c2cccc(F)c2F)n[nH]1` | -1.724 | 11.11 | 15.96 | 13.79 |
| 26 | `CN(Cc1cn2c(n1)CN(C1CCOC1)CC2)Cc1ccco1` (stereo not drawn) | - | -1.622 | 11.32 | - |
| 27 | `Cc1nc(CN2CCCN(C(=O)C3(C#N)CCCCC3)CC2)cs1` | - | -0.7519 | 10.11 | -6.283 |
| 28 | `COc1ccc(C(=O)O)cc1-c1cccc2c1CCNC2` | -13.74 | 8.458 | 27.97 | 9.75 |
| 29 | `O=C(O)C(F)(F)F.O=C(O)C(F)(F)F.[H][C@]12COC[C@H](N(C)C)[C@@]1([H])CN(Cc1ccc3c(c1)OCO3)C2` | -13.65 | - | - | - |
| 30 | `[H][C@@]12CS(=O)(=O)C[C@]1([H])NCCN2c1ccnc(N(C)Cc2ccccn2)n1` | -1.523 | - | - | -9.015 |
| 31 | `Cc1cc(CN(C)Cc2csc(-c3cccs3)n2)n[nH]1` | -11.29 | 1.818 | 4.444 | -26.24 |
| 32 | `Cn1cc(NC(=O)C2CC(c3ccccc3)C2)ccc1=O` (stereo not drawn) | 2.034 | 9.091 | 71.3 | -0.4932 |
| 33 | `COCCN1CCCn2c(nc(CNC(=O)COC)cc2=O)C1.O=C(O)C(F)(F)F` | -46.26 | - | - | -86.17 |
| 34 | `CCC(=O)Nc1cccc(OCC(=O)N(C)Cc2nccn2CC)c1` | -2.248 | 3.665 | 9.677 | 12.05 |
| 35 | `Cc1nccn1CCCC(=O)N1CCCC(c2noc(C(C)C)n2)C1` (stereo not drawn) | -3.692 | 2.907 | 7.143 | -1.743 |
| 36 | `COc1ccc(Br)c(C(=O)N2CCCC(c3nc(C)no3)C2)c1` (stereo not drawn) | 4.285 | 0 | 6.612 | 2.12 |
| 37 | `O=C(NCc1cccnc1)c1nc2c(s1)CCCN2C(=O)C1CC1.O=C(O)C(F)(F)F` | -0.4863 | - | - | -80.38 |
| 38 | `O=C(c1ccccc1F)N1CCN(c2ccc(-n3cccn3)nn2)CC1` | -4.085 | 1.111 | 4.274 | -46.9 |
| 39 | `COc1cc2cc(C(=O)O)n(C)c2c(OC)c1OC` | -3.347 | 4.918 | 0 | 14.39 |
| 40 | `CN1CCN(C(=O)N2CC[C@@](O)(c3ccccc3)[C@H]3CCCC[C@@H]32)CC1` | - | 0.5128 | 15.87 | - |
| 41 | `CCCn1cnnc1CNC(=O)C1COc2ccc(OC)cc2C1` (stereo not drawn) | -3.653 | 1.316 | 7.5 | -16.76 |
| 42 | `COCCN1CCN(C(=O)c2ccncc2F)Cc2cccnc21` | -3.825 | 0.5464 | 9.709 | 4.783 |
| 43 | `O=C(O)C(F)(F)F.O=C(O)C(F)(F)F.[H][C@@]12CCN(Cc3cccs3)C[C@]1([H])[C@@H](CN(C)Cc1ccco1)OC2` | -5.021 | - | - | -21.51 |
| 44 | `Cc1ccnc(OC[C@@]23CCO[C@@H]2CCN(c2ncc(F)cn2)C3)n1` | - | 2.299 | 10.53 | - |
| 45 | `CC(C)c1ccc(CN2CCC3(CCCN(c4nncs4)C3)C2)cc1` (stereo not drawn) | - | 10.17 | 33.96 | - |
| 46 | `Cc1nc2cc(C(=O)N(CCC#N)CCC#N)ccc2n1C` | -17.62 | 9.827 | 17.02 | -9.334 |
| 47 | `O=C(C1CC1)N1CCN2C[C@@H](CO)[C@H](c3ccccc3)[C@H]2C1` | - | 3.371 | 8.163 | - |
| 48 | `Cc1cc(CS(=O)(=O)NC2CCCCC2)on1` | -6.424 | 7.182 | 1.408 | -35.57 |
| 49 | `Cl.O=C(Nc1ccccc1)C1=NOC2(CCNCC2)C1` | 5.795 | - | - | -1.575 |
| 50 | `[H][C@]12CCCCN1CCC[C@H]2CCC(=O)NCCc1n[nH]c(=O)n1C` | -4.784 | - | - | 10.43 |
| 51 | `Cc1ncc2c(n1)CCCC2NC(=O)c1ccccc1C(=O)O` (stereo not drawn) | -20.66 | 11.88 | 16.48 | -14.38 |
| 52 | `O=C(CC1CCCCC1)N1CCOCC1CO` (stereo not drawn) | -0.3152 | 12.02 | 21.95 | -10.34 |
| 53 | `CC(C)(C)OC(=O)N1CCCCC(NC(=O)CCc2cccnc2)C1` (stereo not drawn) | -6.44 | 4.762 | 21.92 | -466.3 |
| 54 | `CCC1(c2ccc(NS(=O)(=O)N(C)C)cc2)CCC(=O)NC1=O` (stereo not drawn) | 12.39 | 8.092 | 12.37 | 24.37 |
| 55 | `Cc1cnn(CC2CN(Cc3nc4ccccc4n3C)CCO2)c1` (stereo not drawn) | -7.962 | 0.8746 | -6.195 | - |
| 56 | `COc1ccc(CN2CCC(O)(CN3CCCCC3)C2)c(C)c1` (stereo not drawn) | - | 5.747 | 16.13 | 26.53 |
| 57 | `COCCn1cnc2ccc(NC(=O)C3CC3)cc2c1=O` | - | 1.98 | 8.696 | -35.63 |
| 58 | `Cc1noc([C@@H]2C[C@H]3OCC[C@H]3N(CC3CCCC3)C2)n1` | - | 7.882 | 17.65 | - |

The last 4 entries again:

- Cc1cnn(CC2CN(Cc3nc4ccccc4n3C)CCO2)c1 (stereo not drawn) : A: -7.962%; B: 0.8746%; C: -6.195%
- COc1ccc(CN2CCC(O)(CN3CCCCC3)C2)c(C)c1 (stereo not drawn) : B: 5.747%; C: 16.13%; D: 26.53%
- COCCn1cnc2ccc(NC(=O)C3CC3)cc2c1=O : B: 1.98%; C: 8.696%; D: -35.63%
- Cc1noc([C@@H]2C[C@H]3OCC[C@H]3N(CC3CCCC3)C2)n1 : B: 7.882%; C: 17.65%